Test results reported in the supplement of paper PMC10849652.
This is one part of the list. Residues, ends and D or L forms follow the SMILES beside them. *: point of attachment. Cbz = O=C(OCc1ccccc1)*

Protein sequences, listed by entry. Tags and fused reporters are not part of them. Lines headed by an entry give the natural chain unless they say otherwise; changes in a name come on top.
UniProt Q9H9S3, whole entry, looked up: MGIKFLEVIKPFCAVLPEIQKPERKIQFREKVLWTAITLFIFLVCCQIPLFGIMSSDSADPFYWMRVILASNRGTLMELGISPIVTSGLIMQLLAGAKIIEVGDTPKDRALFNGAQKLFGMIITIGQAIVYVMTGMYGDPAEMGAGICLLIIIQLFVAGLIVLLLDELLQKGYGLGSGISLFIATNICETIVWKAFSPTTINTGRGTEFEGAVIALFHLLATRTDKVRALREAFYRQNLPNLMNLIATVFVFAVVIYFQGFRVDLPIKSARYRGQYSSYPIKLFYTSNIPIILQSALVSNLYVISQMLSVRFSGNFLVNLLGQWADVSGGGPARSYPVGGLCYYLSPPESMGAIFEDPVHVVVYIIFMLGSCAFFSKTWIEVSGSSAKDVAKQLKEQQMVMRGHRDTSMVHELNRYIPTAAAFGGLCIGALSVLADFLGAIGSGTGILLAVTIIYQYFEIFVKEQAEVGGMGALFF
UniProt Q99442: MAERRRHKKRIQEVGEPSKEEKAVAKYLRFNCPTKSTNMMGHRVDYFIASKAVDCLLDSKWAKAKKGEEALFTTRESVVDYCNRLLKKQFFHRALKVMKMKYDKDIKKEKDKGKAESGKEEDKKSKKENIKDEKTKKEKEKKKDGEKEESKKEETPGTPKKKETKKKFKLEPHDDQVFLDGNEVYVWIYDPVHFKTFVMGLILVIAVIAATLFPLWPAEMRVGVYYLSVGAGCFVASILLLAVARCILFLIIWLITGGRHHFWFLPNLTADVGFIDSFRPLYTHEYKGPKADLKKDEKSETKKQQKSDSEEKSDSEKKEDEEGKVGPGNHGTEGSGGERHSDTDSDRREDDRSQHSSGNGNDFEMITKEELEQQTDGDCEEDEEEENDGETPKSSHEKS
UniProt Q9UGK8: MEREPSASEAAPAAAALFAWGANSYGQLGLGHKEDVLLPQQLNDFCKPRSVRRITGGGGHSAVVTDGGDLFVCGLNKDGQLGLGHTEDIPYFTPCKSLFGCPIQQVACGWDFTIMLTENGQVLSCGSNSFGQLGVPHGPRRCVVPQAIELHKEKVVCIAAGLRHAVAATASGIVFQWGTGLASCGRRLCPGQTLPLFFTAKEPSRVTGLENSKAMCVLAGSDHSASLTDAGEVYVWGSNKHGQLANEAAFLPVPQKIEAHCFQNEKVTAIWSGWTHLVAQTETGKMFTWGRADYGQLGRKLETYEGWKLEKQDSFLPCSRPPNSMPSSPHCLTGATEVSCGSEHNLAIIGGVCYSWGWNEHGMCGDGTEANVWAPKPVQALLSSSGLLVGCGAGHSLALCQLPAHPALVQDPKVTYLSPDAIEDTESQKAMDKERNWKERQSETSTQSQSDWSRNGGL
UniProt Q8N6T7, whole entry, looked up: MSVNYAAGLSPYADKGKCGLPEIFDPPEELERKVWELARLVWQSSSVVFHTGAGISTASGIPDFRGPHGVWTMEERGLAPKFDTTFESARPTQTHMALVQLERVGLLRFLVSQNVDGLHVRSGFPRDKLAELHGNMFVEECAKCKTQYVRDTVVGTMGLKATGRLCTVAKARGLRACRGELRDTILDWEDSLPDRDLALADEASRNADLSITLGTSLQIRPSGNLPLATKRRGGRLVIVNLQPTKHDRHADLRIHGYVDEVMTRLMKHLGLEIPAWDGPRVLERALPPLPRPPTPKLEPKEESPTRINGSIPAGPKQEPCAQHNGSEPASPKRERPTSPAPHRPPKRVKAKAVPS
UniProt Q9H173: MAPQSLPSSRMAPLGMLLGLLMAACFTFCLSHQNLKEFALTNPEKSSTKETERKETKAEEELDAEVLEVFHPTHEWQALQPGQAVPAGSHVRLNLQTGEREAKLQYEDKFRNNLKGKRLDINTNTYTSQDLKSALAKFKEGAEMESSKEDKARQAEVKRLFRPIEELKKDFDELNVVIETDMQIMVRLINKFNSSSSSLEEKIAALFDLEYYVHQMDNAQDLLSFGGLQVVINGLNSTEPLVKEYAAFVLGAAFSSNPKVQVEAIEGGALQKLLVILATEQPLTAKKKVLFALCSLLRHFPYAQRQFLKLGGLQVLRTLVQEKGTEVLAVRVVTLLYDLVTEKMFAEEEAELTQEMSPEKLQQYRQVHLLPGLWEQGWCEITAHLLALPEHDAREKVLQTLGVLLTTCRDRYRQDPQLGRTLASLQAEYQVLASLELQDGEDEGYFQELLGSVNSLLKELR
UniProt Q9UGP8: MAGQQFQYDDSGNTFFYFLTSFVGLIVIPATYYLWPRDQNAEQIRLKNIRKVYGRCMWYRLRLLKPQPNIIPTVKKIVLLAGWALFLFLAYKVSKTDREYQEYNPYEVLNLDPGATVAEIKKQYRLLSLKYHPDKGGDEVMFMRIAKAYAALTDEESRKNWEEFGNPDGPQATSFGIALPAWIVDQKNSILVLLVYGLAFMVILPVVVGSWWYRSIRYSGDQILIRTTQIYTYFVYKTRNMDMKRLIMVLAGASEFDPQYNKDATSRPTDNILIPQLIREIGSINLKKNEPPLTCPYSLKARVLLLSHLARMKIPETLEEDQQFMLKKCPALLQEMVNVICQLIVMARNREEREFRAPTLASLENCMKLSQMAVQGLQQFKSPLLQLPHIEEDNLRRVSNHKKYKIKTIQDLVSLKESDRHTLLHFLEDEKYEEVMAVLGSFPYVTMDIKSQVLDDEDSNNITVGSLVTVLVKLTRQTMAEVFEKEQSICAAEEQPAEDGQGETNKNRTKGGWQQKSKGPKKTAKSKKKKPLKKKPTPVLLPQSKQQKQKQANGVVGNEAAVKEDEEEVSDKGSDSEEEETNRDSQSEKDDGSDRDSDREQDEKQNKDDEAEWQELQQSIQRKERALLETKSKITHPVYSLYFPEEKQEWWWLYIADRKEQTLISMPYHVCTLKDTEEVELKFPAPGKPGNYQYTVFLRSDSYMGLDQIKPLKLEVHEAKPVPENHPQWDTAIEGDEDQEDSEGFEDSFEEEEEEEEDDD
UniProt Q15427: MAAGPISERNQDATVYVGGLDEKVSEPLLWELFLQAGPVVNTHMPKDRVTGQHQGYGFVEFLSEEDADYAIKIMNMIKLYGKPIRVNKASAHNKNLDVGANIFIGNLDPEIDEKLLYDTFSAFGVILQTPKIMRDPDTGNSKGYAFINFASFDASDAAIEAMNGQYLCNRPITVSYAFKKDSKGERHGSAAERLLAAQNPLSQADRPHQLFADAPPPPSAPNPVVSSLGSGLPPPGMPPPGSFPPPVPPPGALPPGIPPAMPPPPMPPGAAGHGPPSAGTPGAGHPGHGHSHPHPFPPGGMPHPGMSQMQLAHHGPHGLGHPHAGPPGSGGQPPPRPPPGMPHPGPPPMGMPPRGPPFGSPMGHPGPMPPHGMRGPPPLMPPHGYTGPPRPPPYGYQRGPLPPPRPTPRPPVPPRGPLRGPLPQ
UniProt Q01105, whole entry, looked up: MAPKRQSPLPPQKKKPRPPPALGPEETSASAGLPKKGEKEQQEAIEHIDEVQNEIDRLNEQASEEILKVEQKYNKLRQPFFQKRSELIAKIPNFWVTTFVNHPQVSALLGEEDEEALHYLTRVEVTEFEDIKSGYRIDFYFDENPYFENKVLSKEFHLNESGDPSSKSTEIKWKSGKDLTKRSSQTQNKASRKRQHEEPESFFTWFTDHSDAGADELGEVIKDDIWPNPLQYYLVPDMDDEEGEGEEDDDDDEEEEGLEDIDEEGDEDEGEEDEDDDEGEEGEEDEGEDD
UniProt Q7L8J4: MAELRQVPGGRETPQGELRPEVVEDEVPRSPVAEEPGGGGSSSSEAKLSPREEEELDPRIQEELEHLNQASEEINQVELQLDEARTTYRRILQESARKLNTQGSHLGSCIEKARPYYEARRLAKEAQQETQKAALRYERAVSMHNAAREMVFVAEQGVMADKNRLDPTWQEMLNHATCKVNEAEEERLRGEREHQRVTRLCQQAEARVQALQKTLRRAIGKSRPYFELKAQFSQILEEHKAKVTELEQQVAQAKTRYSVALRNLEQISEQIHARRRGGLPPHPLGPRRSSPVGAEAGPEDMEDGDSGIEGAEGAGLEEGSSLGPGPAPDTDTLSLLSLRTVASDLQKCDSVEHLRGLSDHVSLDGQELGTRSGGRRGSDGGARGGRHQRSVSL
UniProt P23246: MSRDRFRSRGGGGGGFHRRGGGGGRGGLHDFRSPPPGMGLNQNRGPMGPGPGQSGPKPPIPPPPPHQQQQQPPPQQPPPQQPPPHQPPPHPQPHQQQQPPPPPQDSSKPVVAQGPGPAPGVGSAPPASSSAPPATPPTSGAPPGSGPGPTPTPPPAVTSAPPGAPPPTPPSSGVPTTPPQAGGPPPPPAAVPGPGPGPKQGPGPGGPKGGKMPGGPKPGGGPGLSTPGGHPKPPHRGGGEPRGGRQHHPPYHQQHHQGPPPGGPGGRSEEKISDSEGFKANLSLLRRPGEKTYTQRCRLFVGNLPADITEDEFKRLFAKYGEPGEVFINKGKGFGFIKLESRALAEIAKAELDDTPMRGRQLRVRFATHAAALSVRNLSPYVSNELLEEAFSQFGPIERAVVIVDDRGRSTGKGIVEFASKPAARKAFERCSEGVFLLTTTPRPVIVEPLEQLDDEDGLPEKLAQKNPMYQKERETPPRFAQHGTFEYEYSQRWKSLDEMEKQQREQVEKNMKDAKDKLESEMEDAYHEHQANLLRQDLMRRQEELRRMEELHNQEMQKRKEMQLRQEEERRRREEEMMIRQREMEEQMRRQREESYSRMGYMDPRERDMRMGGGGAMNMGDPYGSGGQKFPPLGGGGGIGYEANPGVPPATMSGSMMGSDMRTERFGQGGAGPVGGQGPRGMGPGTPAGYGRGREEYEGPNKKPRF
UniProt Q9NXA8: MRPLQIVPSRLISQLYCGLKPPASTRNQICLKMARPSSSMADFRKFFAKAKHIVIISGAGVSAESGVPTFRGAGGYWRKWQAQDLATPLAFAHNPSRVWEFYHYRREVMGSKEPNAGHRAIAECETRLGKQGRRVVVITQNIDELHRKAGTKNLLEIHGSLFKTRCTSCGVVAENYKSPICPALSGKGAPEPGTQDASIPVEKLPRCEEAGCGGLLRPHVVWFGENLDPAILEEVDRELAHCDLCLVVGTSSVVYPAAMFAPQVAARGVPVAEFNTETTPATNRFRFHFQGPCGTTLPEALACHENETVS
UniProt Q96EB6: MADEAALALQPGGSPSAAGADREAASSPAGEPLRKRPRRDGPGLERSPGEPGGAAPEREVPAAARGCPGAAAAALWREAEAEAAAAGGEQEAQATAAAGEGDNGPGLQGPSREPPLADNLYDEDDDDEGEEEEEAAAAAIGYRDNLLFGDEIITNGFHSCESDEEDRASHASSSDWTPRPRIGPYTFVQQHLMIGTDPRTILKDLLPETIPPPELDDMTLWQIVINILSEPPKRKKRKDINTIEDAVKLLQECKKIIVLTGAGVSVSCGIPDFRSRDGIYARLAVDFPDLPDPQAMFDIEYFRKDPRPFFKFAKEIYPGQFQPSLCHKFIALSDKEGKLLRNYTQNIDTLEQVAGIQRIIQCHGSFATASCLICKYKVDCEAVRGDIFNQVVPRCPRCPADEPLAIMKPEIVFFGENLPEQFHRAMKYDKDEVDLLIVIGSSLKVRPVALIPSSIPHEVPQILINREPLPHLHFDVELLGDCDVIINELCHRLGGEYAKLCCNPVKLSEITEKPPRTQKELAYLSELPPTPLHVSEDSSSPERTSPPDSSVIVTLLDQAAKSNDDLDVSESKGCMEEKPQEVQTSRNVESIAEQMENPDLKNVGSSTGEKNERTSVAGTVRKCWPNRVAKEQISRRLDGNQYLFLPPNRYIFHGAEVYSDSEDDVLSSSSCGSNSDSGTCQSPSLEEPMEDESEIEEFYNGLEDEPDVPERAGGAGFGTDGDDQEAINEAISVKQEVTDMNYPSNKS
UniProt P50454: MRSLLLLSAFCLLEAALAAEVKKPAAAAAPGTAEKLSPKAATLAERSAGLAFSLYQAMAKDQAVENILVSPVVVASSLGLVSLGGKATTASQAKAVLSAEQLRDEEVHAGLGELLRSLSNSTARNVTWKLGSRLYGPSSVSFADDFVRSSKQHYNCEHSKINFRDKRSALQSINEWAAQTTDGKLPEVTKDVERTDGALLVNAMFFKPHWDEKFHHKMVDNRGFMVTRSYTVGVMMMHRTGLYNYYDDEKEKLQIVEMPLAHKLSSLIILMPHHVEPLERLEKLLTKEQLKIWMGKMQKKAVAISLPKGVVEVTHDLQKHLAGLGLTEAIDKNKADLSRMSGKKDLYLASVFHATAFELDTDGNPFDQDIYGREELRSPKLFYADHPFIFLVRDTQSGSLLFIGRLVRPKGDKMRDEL
UniProt Q9BQE4, whole entry, looked up: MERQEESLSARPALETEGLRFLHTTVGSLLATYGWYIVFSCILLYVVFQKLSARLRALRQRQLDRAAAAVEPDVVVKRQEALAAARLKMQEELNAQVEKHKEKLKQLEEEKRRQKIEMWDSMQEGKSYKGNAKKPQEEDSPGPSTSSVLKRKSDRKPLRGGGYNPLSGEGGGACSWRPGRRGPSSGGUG

How the values were obtained:
Assay in all cases: log2 fold change, soluble protein after heating vs DMSO (PISA); higher = thermal stabilisation; K562 cells, 10 uM, 30 min; active = over 0.2 and 3.5 SD of the protein, either way, in both replicates (recomputed)
erlotinib = compound: C#Cc1cccc(Nc2ncnc3cc(OCCOC)c(OCCOC)cc23)c1 [erlotinib]
How it was run: (§1)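 Aliquots of K562 cells (2×10^6 cells/mL) treated with 10 μM compound for 30 min were heated for 3 min over 48°C-58°C. After pooling and extraction in PBS with 0.5% NP-40 at 4°C, soluble protein from a 21,000xg, 90 min spin was quantified by TMTpro 16plex LC-MS/MS with channel sums equalised. Thermal stability is expressed against control samples, from duplicates, as a log2 fold change.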

[1] = compound: C/C(=N\NC(=O)C1=CC(=CC=C1)S(=O)(=O)N2CCOCC2)/C3=C(C=CC(=C3)Cl)O
How it was run: as §1

[2] = compound: C1=CC(=C(C=C1Cl)C2=NC3=NC=CN=C3C(=N2)NC4=CC=NC=C4)F
How it was run: as §1

[3] = compound: C1=CC(=CC=C1C2=NC3=C(N2)C=C(C=C3)C(=O)N)OC4=CC=C(C=C4)Cl
How it was run: as §1

[4] = compound: C1=CC2=C(C=CC(=C2)/C=C\3/C(=O)NC(=NCC4=CC=CS4)S3)N=C1
How it was run: as §1

[5] = compound: C1=CC2=NC=CN=C2C=C1/C=C/3\C(=O)NC(=O)S3
How it was run: as §1

[6] = compound: C1=CC=C(C=C1)C2=NC(=C(N2)C3=CC=NC=C3)C4=CC(=C(C=C4)Cl)O
How it was run: as §1

[7] = compound: C1=CC=C2C(=C1)C3=NNC4=CC=CC(=C43)C2=O
How it was run: as §1

[8] = compound: C1CCN(C1)C(=O)NC2=CC=CC(=C2)NC3=NC=C(C(=N3)NCCC4=CN=CN4)Br
How it was run: as §1

[9] = compound: C1CN(CCC1(CC2=CC=C(C=C2)Cl)N)C3=NC=NC4=C3C=CN4
How it was run: as §1

IRAK-1-4 Inhibitor I = compound: C1COCCN1CCN2C3=CC=CC=C3N=C2NC(=O)C4=CC(=CC=C4)[N+](=O)[O-] [IRAK-1-4 Inhibitor I]
How it was run: as §1

ibrutinib = compound: C=CC(=O)N1CCC[C@@H](n2nc(-c3ccc(Oc4ccccc4)cc3)c3c(N)ncnc32)C1 [ibrutinib]
How it was run: as §1

[10] = compound: CC(=O)c1cnc2ccc(-c3cc(Cl)c(O)c(Cl)c3)nc2c1N[C@H]1CC[C@H](CN(C)C)CC1
How it was run: as §1

ralimetinib = compound: CC(C)(C)Cn1c(N)nc2ccc(-c3[nH]c(C(C)(C)C)nc3-c3ccc(F)cc3)nc21 [ralimetinib]
How it was run: as §1

[11] = compound: CC(C)(O)CC(=O)NCCn1ccc2ncnc(Nc3ccc(Oc4cccc(C(F)(F)F)c4)c(Cl)c3)c21
How it was run: as §1

[12] = compound: CC(C)C1=C2N=C(C=C(N2N=C1)NCC3=CC=CC=C3)NCCCCCCN
How it was run: as §1

[13] = compound: CC(C)C[C@@H](C=O)NC(=O)[C@H](CC(C)C)NC(=O)[C@H](CC(C)C)NC(=O)OCc1ccccc1
How it was run: as §1

pinometostat = compound: CC(C)N(C[C@H]1O[C@@H](n2cnc3c(N)ncnc32)[C@H](O)[C@@H]1O)[C@H]1C[C@@H](CCc2nc3cc(C(C)(C)C)ccc3[nH]2)C1 [pinometostat]
How it was run: as §1

[14] = compound: CC1=C(C(CC(=O)N1)C2=CC=C(C=C2)C(F)(F)F)C(=O)NC3=C(C=C4C(=C3)C=NN4)F
How it was run: as §1

[15] = compound: CC1=C(C2=C(C=C1)C(=O)C3=CC=CC=C3N2CCCN)C
How it was run: as §1

Measured: log2 fold change

SGO1 (UniProt Q5FBB7)
inactive: erlotinib 0.028 | [1] -0.032 | [2] -0.073 | [3] -0.029 | [4] 0.011 | [5] 0.029 | [6] -0.044 | [7] -0.003 | [8] 0.007 | [9] 0.013 | IRAK-1-4 Inhibitor I 0.019 | ibrutinib -0.036 | [10] 0.007 | ralimetinib -0.027 | [11] 0.011 | [12] -0.1 | [13] 0.072 | pinometostat -0.001 | [14] -0.028 | [15] -0.165

SEC61A2 (UniProt Q9H9S3)
inactive: erlotinib -0.013 | [1] 0.015 | [2] 0.054 | [3] -0.023 | [4] -0.004 | [5] 0.059 | [6] -0.012 | [7] 0.009 | [8] 0.005 | [9] 0.07 | IRAK-1-4 Inhibitor I 0.051 | ibrutinib 0.01 | [10] 0.021 | ralimetinib -0.086 | [11] -0.063 | [12] 0.009 | [13] -0.125 | pinometostat -0.08 | [14] -0.007 | [15] 0.017

SEC62 (UniProt Q99442)
inactive: erlotinib 0.013 | [1] -0.026 | [2] 0.01 | [3] -0.012 | [4] -0.003 | [5] -0.026 | [6] 0.001 | [7] -0.06 | [8] -0.031 | [9] 0.006 | IRAK-1-4 Inhibitor I 0.046 | ibrutinib 0.081 | [10] 0.041 | ralimetinib -0.046 | [11] 0.048 | [12] 0.083 | [13] 0.021 | pinometostat -0.058 | [14] 0.107 | [15] 0.064

SERGEF (UniProt Q9UGK8)
inactive: erlotinib 0.006 | [1] 0.029 | [2] -0.025 | [3] 0.02 | [4] 0.057 | [5] 0.028 | [6] 0.241 | [7] 0.071 | [8] -0.02 | [9] 0.046 | IRAK-1-4 Inhibitor I 0.037 | ibrutinib -0.032 | [10] 0.009 | ralimetinib -0.139 | [11] -0.094 | [12] -0.065 | [13] 0.187 | pinometostat 0.059 | [14] 0.01 | [15] 0.101

SIRT6 (UniProt Q8N6T7)
inactive: erlotinib 0.019 | [1] 0.111 | [2] -0.148 | [3] -0.084 | [4] -0.022 | [5] -0.301 | [6] -0.019 | [7] 0.019 | [8] -0.12 | [9] 0.041 | IRAK-1-4 Inhibitor I -0.053 | ibrutinib 0.019 | [10] -0.153 | ralimetinib 0.058 | [11] 0.096 | [12] 0.015 | [13] 0.088 | pinometostat -0.045 | [14] 0.075 | [15] 0.234

SIL1 (UniProt Q9H173)
inactive: erlotinib -0.053 | [1] -0.107 | [2] -0.059 | [3] 0.039 | [4] 0.026 | [5] -0.008 | [6] 0.044 | [7] -0.011 | [8] 0.027 | [9] -0.022 | IRAK-1-4 Inhibitor I -0.06 | ibrutinib -0.095 | [10] -0.008 | ralimetinib 0.038 | [11] -0.064 | [12] -0.026 | [13] -0.049 | pinometostat 0.079 | [14] 0.054 | [15] 0.017

SEC63 (UniProt Q9UGP8)
inactive: erlotinib -0.014 | [1] 0.004 | [2] 0.024 | [3] -0.002 | [4] 0.005 | [5] 0.027 | [6] -0.002 | [7] -0.001 | [8] 0.012 | [9] 0 | IRAK-1-4 Inhibitor I 0.001 | ibrutinib -0.029 | [10] 0.003 | ralimetinib -0.036 | [11] -0.008 | [12] 0.085 | [13] -0.023 | pinometostat -0.038 | [14] 0 | [15] 0.02

SF3B4 (UniProt Q15427)
inactive: erlotinib -0.103 | [1] -0.04 | [2] 0.02 | [3] 0.038 | [4] 0.098 | [5] 0.079 | [6] 0.027 | [7] -0.007 | [8] -0.015 | [9] -0.058 | IRAK-1-4 Inhibitor I -0.016 | ibrutinib -0.049 | [10] -0.083 | ralimetinib 0.074 | [11] 0.062 | [12] 0.092 | [13] 0.014 | pinometostat 0.098 | [14] -0.009 | [15] 0.011

SF3B3 (UniProt Q15393)
inactive: erlotinib -0.039 | [1] 0.026 | [2] 0.009 | [3] -0.005 | [4] 0.004 | [5] 0.003 | [6] -0.009 | [7] 0.054 | [8] -0.023 | [9] 0.003 | IRAK-1-4 Inhibitor I 0.021 | ibrutinib 0.013 | [10] -0.025 | ralimetinib -0.033 | [11] -0.009 | [12] 0.075 | [13] 0.017 | pinometostat 0.006 | [14] -0.039 | [15] 0.074

SET isoform 2 (UniProt Q01105)
inactive: erlotinib 0.039 | [1] -0.007 | [2] -0.047 | [3] 0.002 | [4] -0.002 | [5] -0.013 | [6] -0.045 | [7] 0.022 | [8] -0.014 | [9] 0.041 | IRAK-1-4 Inhibitor I 0.064 | ibrutinib 0.003 | [10] -0.013 | ralimetinib -0.054 | [11] 0.038 | [12] 0.07 | [13] 0.012 | pinometostat -0.057 | [14] 0.008 | [15] -0.018

SH3BP5L (UniProt Q7L8J4)
inactive: erlotinib 0.023 | [1] 0.043 | [2] 0.049 | [3] -0.013 | [4] -0.005 | [5] 0.072 | [6] 0.067 | [7] 0.027 | [8] -0.017 | [9] -0.003 | IRAK-1-4 Inhibitor I -0.041 | ibrutinib -0.052 | [10] -0.004 | ralimetinib -0.05 | [11] 0.037 | [12] -0.085 | [13] -0.043 | pinometostat -0.015 | [14] -0.02 | [15] 0.049

SFPQ (UniProt P23246)
inactive: erlotinib 0 | [1] 0 | [2] -0.227 | [3] 0.028 | [4] -0.037 | [5] 0.098 | [6] -0.079 | [7] -0.037 | [8] -0.055 | [9] -0.064 | IRAK-1-4 Inhibitor I -0.107 | ibrutinib 0.031 | [10] -0.001 | ralimetinib 0.108 | [11] 0.038 | [12] -0.08 | [13] 0.083 | pinometostat 0.115 | [14] -0.012 | [15] 0.065

SIRT5 (UniProt Q9NXA8)
inactive: erlotinib -0.097 | [1] 0.042 | [2] 0.011 | [3] 0.054 | [4] -0.035 | [5] 0.083 | [6] -0.123 | [7] 0.036 | [8] -0.044 | [9] -0.022 | IRAK-1-4 Inhibitor I 0.048 | ibrutinib 0.081 | [10] -0.009 | ralimetinib -0.009 | [11] -0.025 | [12] 0.053 | [13] 0.003 | pinometostat -0.052 | [14] -0.001 | [15] 0.024

SIRT1 (UniProt Q96EB6)
inactive: erlotinib -0.007 | [1] 0.04 | [2] 0.098 | [3] 0.044 | [4] -0.003 | [5] -0.012 | [6] -0.02 | [7] -0.004 | [8] 0 | [9] 0.015 | IRAK-1-4 Inhibitor I 0.029 | ibrutinib -0.018 | [10] -0.024 | ralimetinib 0.013 | [11] -0.008 | [12] -0.053 | [13] 0.029 | pinometostat -0.044 | [14] 0.015 | [15] -0.096

Two records drawn at random from those above:
SFPQ (UniProt P23246)
inactive: erlotinib 0 | [1] 0 | [2] -0.227 | [3] 0.028 | [4] -0.037 | [5] 0.098 | [6] -0.079 | [7] -0.037 | [8] -0.055 | [9] -0.064 | IRAK-1-4 Inhibitor I -0.107 | ibrutinib 0.031 | [10] -0.001 | ralimetinib 0.108 | [11] 0.038 | [12] -0.08 | [13] 0.083 | pinometostat 0.115 | [14] -0.012 | [15] 0.065

SIRT1 (UniProt Q96EB6)
inactive: erlotinib -0.007 | [1] 0.04 | [2] 0.098 | [3] 0.044 | [4] -0.003 | [5] -0.012 | [6] -0.02 | [7] -0.004 | [8] 0 | [9] 0.015 | IRAK-1-4 Inhibitor I 0.029 | ibrutinib -0.018 | [10] -0.024 | ralimetinib 0.013 | [11] -0.008 | [12] -0.053 | [13] 0.029 | pinometostat -0.044 | [14] 0.015 | [15] -0.096

Further results follow.

SERPINH1 (UniProt P50454)
inactive: erlotinib -0.027 | [1] 0.013 | [2] 0.008 | [3] -0.03 | [4] -0.033 | [5] 0 | [6] 0.016 | [7] 0.009 | [8] -0.004 | [9] 0.008 | IRAK-1-4 Inhibitor I 0.016 | ibrutinib -0.018 | [10] 0.013 | ralimetinib 0.037 | [11] -0.006 | [12] -0.002 | [13] -0.04 | pinometostat -0.011 | [14] -0.009 | [15] 0.02

SELENOS (UniProt Q9BQE4)
inactive: erlotinib 0.011 | [1] 0.011 | [2] 0.033 | [3] 0.014 | [4] -0.029 | [5] 0.023 | [6] -0.043 | [7] -0.077 | [8] -0.057 | [9] 0.018 | IRAK-1-4 Inhibitor I 0.044 | ibrutinib 0.059 | [10] -0.014 | ralimetinib -0.064 | [11] -0.083 | [12] 0.055 | [13] 0.036 | pinometostat -0.084 | [14] 0.01 | [15] -0.04
